The values below come from patent publication US20060100140A1, “Combination of a) n-{5-[4-(4-methyl-piperazino-methyl)-benzoylamido]2-methylphenyl}-4- (3-pyridyl)-2-pyrimidine-amine and b) a histone deacetylase inhibitor for the treatment of leukemia” (priority 2002, published 2006).

For assay [1], the system named is LAMA-S-571 (sensitive LAMA 84 cells). The assay can be described thus: cells. The note with it: Homo sapiens, LAMA-84, read-out: I.C.50 Compound I, sensitive LAMA 84 cells.
Assay [2] deals with LAMA-R-571 (LAMA 84-R cells). The assay can be described thus: cells. The note with it: Homo sapiens, LAMA-84, read-out: I.C.50 Compound I, Compound I-resistant LAMA 84 cells.

As for `Cc1ccc(NC(=O)c2ccc(CN3CCN(C)CC3)cc2)cc1Nc1nccc(-c2cccnc2)n1` [Compound I, N-{5-[4-(4-methyl-piperazino-methyl)-benzoylamido]-2-methylphenyl}-4-(3-pyridyl)-2-pyrimidine-amine], the IC50 in assay [1] worked out at 300 nM; in assay [2], 1800 nM.
